Source: paper PMC7542355
No constants are given. Whether binding was seen depends on the method and setting. Binding seen in cells or lysates may run through a third protein. Some results given as binding are weak or reduced against the parent protein; the word gives no strength.

Amino acid sequences for entries named in this document (tags omitted).
UniProt P62344: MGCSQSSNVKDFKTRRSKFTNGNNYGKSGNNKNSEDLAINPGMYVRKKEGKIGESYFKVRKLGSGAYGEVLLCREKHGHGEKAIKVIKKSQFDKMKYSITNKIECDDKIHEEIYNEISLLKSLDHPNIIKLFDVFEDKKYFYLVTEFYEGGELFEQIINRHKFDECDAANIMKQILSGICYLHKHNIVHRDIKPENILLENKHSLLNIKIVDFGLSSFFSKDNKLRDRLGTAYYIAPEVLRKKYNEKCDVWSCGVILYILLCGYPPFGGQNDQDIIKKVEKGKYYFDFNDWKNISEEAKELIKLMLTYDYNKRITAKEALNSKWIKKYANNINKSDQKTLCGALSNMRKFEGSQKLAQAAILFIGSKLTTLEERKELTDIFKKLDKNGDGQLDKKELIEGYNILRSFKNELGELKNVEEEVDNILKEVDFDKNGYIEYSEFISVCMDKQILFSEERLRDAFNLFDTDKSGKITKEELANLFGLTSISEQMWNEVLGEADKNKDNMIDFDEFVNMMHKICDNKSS

T1: Rhoptry protein RhopH3 (Plasmodium falciparum (endogenous in 3D7 parasites)) (UniProt Q8I395)
T1 sequence: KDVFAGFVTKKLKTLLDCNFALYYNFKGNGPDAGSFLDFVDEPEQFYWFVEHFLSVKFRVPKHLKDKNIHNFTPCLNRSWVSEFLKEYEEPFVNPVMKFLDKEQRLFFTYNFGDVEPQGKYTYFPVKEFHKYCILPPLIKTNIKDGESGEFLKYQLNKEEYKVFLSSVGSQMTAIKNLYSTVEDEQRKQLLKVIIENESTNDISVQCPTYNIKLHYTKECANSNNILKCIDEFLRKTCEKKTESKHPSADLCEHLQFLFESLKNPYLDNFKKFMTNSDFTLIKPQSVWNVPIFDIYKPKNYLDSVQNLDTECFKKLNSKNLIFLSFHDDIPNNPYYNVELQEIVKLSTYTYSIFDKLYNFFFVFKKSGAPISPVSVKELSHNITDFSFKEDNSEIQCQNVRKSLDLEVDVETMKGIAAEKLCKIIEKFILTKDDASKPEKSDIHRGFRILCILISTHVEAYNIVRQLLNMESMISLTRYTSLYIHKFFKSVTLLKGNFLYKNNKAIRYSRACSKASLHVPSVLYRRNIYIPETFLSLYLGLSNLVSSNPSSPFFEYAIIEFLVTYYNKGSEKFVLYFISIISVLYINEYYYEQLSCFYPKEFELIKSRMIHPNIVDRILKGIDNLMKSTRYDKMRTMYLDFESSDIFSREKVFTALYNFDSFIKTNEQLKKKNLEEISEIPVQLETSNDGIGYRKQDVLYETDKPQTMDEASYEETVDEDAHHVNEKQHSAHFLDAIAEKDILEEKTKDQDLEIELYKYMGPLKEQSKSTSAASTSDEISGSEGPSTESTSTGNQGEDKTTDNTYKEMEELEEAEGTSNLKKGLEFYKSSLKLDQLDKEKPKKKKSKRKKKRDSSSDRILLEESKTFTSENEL

B1: Rhoptry protein RhopH3 (protein, UniProt Q8I395 25-897)
chain: T1 sequence

What was measured:
[1] = target: T1, Rhoptry protein RhopH3 (Plasmodium falciparum (endogenous in 3D7 parasites)); experiment: co-IP; reverse IP: RhopH3 immunoprecipitated with RhopH3 antisera from PfCDPK1-3HA-DD parasite lysate; Western blot with anti-HA; 3D7 parasites as negative control
[2] = target: P. falciparum CDPK1 (PfCDPK1) (Plasmodium falciparum (endogenous in 3D7 parasites)) (UniProt P62344); experiment: co-IP; PfCDPK1 immunoprecipitated from 3D7 parasite lysate with anti-PfCDPK1 antisera and protein A/G agarose beads, 4°C, lysis buffer with 1% Triton X-100 and 100 mM NaCl; Western blot for RhopH3 or AMA1

| Molecule | binding [1] | binding [2] |
| --- | --- | --- |
| PfCDPK1-3HA-DD (from UniProt P62344 1-524) (enzyme) | binds |  |
| B1 |  | binds |
